First the molecules themselves.
T1: mouse CAPRIN-1 on the cell membrane surface of mouse cancer cells (mouse) (UniProt Q60865)
T1 sequence (looked up): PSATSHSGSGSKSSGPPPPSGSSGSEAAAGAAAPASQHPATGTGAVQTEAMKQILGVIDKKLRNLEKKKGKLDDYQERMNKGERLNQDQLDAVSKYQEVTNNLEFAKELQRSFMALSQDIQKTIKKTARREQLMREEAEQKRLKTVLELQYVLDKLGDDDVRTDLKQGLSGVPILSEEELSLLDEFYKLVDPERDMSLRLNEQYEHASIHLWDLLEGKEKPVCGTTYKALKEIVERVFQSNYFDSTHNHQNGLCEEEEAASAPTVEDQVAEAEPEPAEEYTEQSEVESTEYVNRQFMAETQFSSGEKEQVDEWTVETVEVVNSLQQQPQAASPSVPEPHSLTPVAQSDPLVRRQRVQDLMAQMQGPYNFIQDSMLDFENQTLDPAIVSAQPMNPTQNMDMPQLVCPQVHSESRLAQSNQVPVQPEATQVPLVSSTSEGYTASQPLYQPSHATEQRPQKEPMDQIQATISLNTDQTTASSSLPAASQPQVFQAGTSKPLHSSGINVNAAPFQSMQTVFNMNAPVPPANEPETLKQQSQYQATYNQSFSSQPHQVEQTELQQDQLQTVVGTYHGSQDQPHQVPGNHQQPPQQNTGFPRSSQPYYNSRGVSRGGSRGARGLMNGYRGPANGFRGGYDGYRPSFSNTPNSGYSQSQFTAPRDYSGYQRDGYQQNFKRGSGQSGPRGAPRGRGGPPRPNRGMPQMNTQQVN

T2: human CAPRIN-1 on the cell membrane surface of human cancer cells (human) (UniProt Q14444)
T2 sequence (looked up): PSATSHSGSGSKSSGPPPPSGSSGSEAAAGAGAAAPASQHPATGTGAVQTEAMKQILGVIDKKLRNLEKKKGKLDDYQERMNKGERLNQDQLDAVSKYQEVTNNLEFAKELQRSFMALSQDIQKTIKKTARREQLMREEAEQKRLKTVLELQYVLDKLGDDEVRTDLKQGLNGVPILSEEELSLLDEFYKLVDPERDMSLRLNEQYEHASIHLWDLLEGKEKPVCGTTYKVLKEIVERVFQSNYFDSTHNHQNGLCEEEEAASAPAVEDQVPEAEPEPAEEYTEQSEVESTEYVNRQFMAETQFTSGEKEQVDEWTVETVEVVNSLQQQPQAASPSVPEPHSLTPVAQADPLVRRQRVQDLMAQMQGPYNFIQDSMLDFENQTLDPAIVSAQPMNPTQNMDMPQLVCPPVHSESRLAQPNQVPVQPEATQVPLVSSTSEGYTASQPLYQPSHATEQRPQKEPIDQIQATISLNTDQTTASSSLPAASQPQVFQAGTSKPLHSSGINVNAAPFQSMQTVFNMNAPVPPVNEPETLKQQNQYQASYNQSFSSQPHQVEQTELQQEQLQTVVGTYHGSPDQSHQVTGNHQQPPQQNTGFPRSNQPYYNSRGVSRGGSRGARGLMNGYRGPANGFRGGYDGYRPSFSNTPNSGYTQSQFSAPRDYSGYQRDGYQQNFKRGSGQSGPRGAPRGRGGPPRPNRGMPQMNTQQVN

B1: F(ab')2 complex #9 (protein)
VH: AVTLDESGGGLQTPGGALSLVCKASGFTFSGYDMLWVRQAPGKGLEWVAGIGSTGGGTDYGAAVKGRATISRDNGQSTVRLQLNNLRAEDTATYYCAKVAGGCNSGYCRDSPGSIDAWGHGTEVIVS
VL: AVTQQPASVSANPGETVKITCSGGGSRNYYGWYQQKSPGSVPVTVIYYDDQRPSNIPSRFSGALSGSTSTLTITGVQADDEAVYFCGSADSNTYEGSFGAGTTLTVL
B2: F(ab')2 complex #42 (protein)
VH: B1 VH
VL: B1 VL
B3: humanized antibody complex #9 (antibody, human IgG1, V domains shown)
VH: B1 VH
VL: B1 VL
B4: F(ab')2 complex #13 (protein)
VH: GAELVRSGASVKMSCKASGYSFTDYNMYWVKQTPGQGLEWIGYIYPGNGGTNYNQKFKGKATLTADTSSSTAYMQISSLTSEDSAVYFCARDYDDGGYAMDYWGQGTTVTVSS
VL: DIQMTQSPASLSASVGETVTITCRASGNIHNYLTWYQQKQGKSPQLLVYNAKTLADGVPSRFSGSGSGTQYSLKINRLQPEDFGSYYCQHFWNIPWTFGGGTKLNSR
B5: F(ab')2 complex #46 (protein)
VH: B4 VH
VL: B4 VL
B6: F(ab')2 complex #36 (protein)
VH: EVQLVESGGGLVQPGGSLRLSCAASGFSLSSHSLGWVRQAPGKGLEWIGDIRSGGSAYYANWAKGRFTISRDNSKNTLYLQMNSLRAEDTAVYYCTRTNGPSDLTNRLDLWGQGTLVTVSS
VL: QVLTQSPSSLSASVGDRVTINCQASQSLYNNENLAWFQQKPGKVPKRLIYGASTLASGVSSRFSGSGSGTEFTLTISSLQCEDFAIYYCLGEFSCGSADCFAFGGGTKVEIK
B7: F(ab')2 complex #70 (protein)
VH: B6 VH with Y94F
VL: B6 VL
B8: F(ab')2 complex #37 (protein)
VH: B6 VH with Y94F
VL: B6 VL
B9: F(ab')2 complex #38 (protein)
VH: B6 VH
VL: EQVLTQSPSSLSASVGDRVTINCQASQSLYNNENLAWFQQKPGKVPKRLIYGASTLASGVSSRFSGSGSGTEFTLTISNLQPEDFAIYYCLGEFSCGSADCFAFGGGTKVEIK
B10: F(ab')2 complex #40 (protein)
VH: B6 VH
VL: B9 VL with Q2I, I87T
B11: F(ab')2 complex #72 (protein)
VH: B6 VH with Y94F
VL: B9 VL with Q2I, I87T
B12: F(ab')2 complex #69 (protein)
VH: B6 VH
VL: B6 VL
B13: F(ab')2 complex #41 (protein)
VH: B6 VH with Y94F
VL: B9 VL
B14: F(ab')2 complex #71 (protein)
VH: B6 VH
VL: B9 VL
B15: F(ab')2 complex #39 (protein)
VH: B6 VH with Y94F
VL: B9 VL with Q2I, I87T
B16: F(ab')2 complex #73 (protein)
VH: B6 VH
VL: B9 VL with Q2I, I87T

Residue numbers refer to the chain shown, from its start. No constants are given. Whether binding was seen depends on the method and setting. Some entries that bind do so weakly or less than the wild type.

One test concerns the target T1, mouse CAPRIN-1 on the cell membrane surface of mouse cancer cells (mouse). The experiment in a line: flow cytometry, 4T1.
Take B1: the binding entry is on record as “binds”.

Consider B2, for which the binding entry is “binds”.

For B3, the binding result is “binds”.

With B4, the binding entry is “binds”.

For the molecule B5, the binding entry is reported as “binds”.

With B6, the binding entry is “binds”.

For the molecule B7, the binding entry was “binds”.

Consider B8, for which the binding entry is reported as “binds”.

For B9, the binding entry is “binds”.

Consider B10, for which the binding result was “binds”.

For B11, the binding result was “binds”.

Turning to B12, the binding result is reported as “binds”.

Turning to B13, the binding result is listed as “binds”.

As to B14, the binding result is listed as “binds”.

Take B15: the binding entry was “binds”.

Turning to B16, the binding result is “binds”.

A further test addresses T2, human CAPRIN-1 on the cell membrane surface of human cancer cells (human). The experiment in a line: flow cytometry, HT29. (In flow cytometry, cells or beads pass a laser one at a time.)
Turning to B1, the binding entry was “binds”.

Take B2: the binding result is given as “binds”.

Turning to B3, the binding result is “binds”.

In the case of B4, the binding result is on record as “binds”.

Regarding B5, the binding result is given as “binds”.

Consider B6, for which the binding entry was “binds”.

For the molecule B7, the binding entry was “binds”.

B8: the binding result is listed as “binds”.

Regarding B9, the binding result is “binds”.

Take B10: the binding result is listed as “binds”.

On to B11, for which the binding result is reported as “binds”.

Consider B12, for which the binding entry was “binds”.

With B13, the binding result is recorded as “binds”.

For the molecule B14, the binding result is “binds”.

With B15, the binding result is “binds”.

Take B16: the binding result is recorded as “binds”.

A further test has the same target. The experiment in a line: flow cytometry, human cancer cells.
Consider B1, for which the binding entry is “binds”.

Regarding B2, the binding entry is “binds”.

As to B3, the binding entry is recorded as “binds”.

For B4, the binding entry is on record as “binds”.

In the case of B5, the binding result is “binds”.

Turning to B6, the binding result is “binds”.

Turning to B7, the binding result is reported as “binds”.

Regarding B8, the binding entry is given as “binds”.

Regarding B9, the binding result was “binds”.

For B10, the binding entry is reported as “binds”.

B11: the binding entry is recorded as “binds”.

Turning to B12, the binding entry was “binds”.

With B13, the binding entry was “binds”.

Turning to B14, the binding result is “binds”.

As for B15, the binding entry was “binds”.

For B16, the binding entry is recorded as “binds”.

A further test deals with T1, mouse CAPRIN-1 on the cell membrane surface of mouse cancer cells (mouse). Kind of test: flow cytometry, mouse cancer cells.
Turning to B1, the binding result was “binds”.

With B2, the binding entry is listed as “binds”.

On to B3, for which the binding result is recorded as “binds”.

B4: the binding entry is on record as “binds”.

As to B5, the binding result is on record as “binds”.

In the case of B6, the binding result was “binds”.

With B7, the binding entry is on record as “binds”.

In the case of B8, the binding result was “binds”.

In the case of B9, the binding result is “binds”.

As to B10, the binding result was “binds”.

For the molecule B11, the binding result is recorded as “binds”.

On to B12, for which the binding result is given as “binds”.

On to B13, for which the binding entry is “binds”.

Consider B14, for which the binding result was “binds”.

For the molecule B15, the binding entry was “binds”.

Regarding B16, the binding entry was “binds”.

The values are drawn from patent EP4778539A1.
